Reference: PubChem BioAssay AID1259405 (NCATS, 2018)

Assay: 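Mouse-designed siRNAs used to find CHO productivity engineering targets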 (primary screen)
Cell system: Chinese hamster CHO-K1 ovary cells with stable secreted eGFP expression
Knock-down reagent: single siRNA against mouse genes, 0.8 pmol siRNA per well (2 µl of 400 nM stock)
Time to read-out: 3 days
Read-out: 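Percent of the per-plate non-targeting control median for intracellular GFP per well by laser scanning cytometry and for cell viability by ATP luminescence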
Scale: GFP, % of control: higher = more GFP per well, higher productivity; viability (ATP), % of control: higher = more viable cells (more ATP)
Active means: 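Called active when intracellular GFP, relative to negative control, is at or above 120%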
Shown is a random part of about 50,000 reagents tested. About 4,000 of them (8%) count as active. 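Mouse siRNA library applied to hamster cells; one well for each siRNA.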 Reagents against one gene are numbered here.

Nkx2-4 (NK2 homeobox 4) #1
- GFP, % of control: 55.5
- viability (ATP), % of control: 62
- call: inactive

Nkx2-4 (NK2 homeobox 4) #2
- GFP, % of control: 66.9
- viability (ATP), % of control: 79.1
- call: inactive

Nkx2-4 (NK2 homeobox 4) #3
- GFP, % of control: 66.6
- viability (ATP), % of control: 80.3
- call: inactive

Slc27a4 #1
- GFP, % of control: 115
- viability (ATP), % of control: 90.5
- call: inactive

Slc27a4 #2
- GFP, % of control: 84.5
- viability (ATP), % of control: 75.7
- call: inactive

Slc27a4 #3
- GFP, % of control: 88.2
- viability (ATP), % of control: 115
- call: inactive

Ubqln2 (ubiquilin 2) #1
- GFP, % of control: 68.4
- viability (ATP), % of control: 65
- call: inactive

Ubqln2 (ubiquilin 2) #2
- GFP, % of control: 150
- viability (ATP), % of control: 59.9
- call: active

Ubqln2 (ubiquilin 2) #3
- GFP, % of control: 87.3
- viability (ATP), % of control: 92.1
- call: inactive

Klri2 (killer cell lectin-like receptor family I member 2) #1
- GFP, % of control: 62.1
- viability (ATP), % of control: 17.2
- call: inactive

Klri2 (killer cell lectin-like receptor family I member 2) #2
- GFP, % of control: 70.7
- viability (ATP), % of control: 97.9
- call: inactive

Klri2 (killer cell lectin-like receptor family I member 2) #3
- GFP, % of control: 59.2
- viability (ATP), % of control: 90.9
- call: inactive

Ms4a4b (membrane-spanning 4-domains, subfamily A, member 4B) #1
- GFP, % of control: 78.8
- viability (ATP), % of control: 52.5
- call: inactive

Ms4a4b (membrane-spanning 4-domains, subfamily A, member 4B) #2
- GFP, % of control: 107
- viability (ATP), % of control: 89.9
- call: inactive

Ms4a4b (membrane-spanning 4-domains, subfamily A, member 4B) #3
- GFP, % of control: 73.7
- viability (ATP), % of control: 60.3
- call: inactive

Cfd (complement factor D) #1
- GFP, % of control: 114
- viability (ATP), % of control: 108
- call: inactive

Cfd (complement factor D) #2
- GFP, % of control: 68
- viability (ATP), % of control: 64.4
- call: inactive

B130024G19Rik (RIKEN cDNA B130024G19 gene) #1
- GFP, % of control: 32.1
- viability (ATP), % of control: 66
- call: inactive

B130024G19Rik (RIKEN cDNA B130024G19 gene) #2
- GFP, % of control: 56.1
- viability (ATP), % of control: 61.7
- call: inactive

B130024G19Rik (RIKEN cDNA B130024G19 gene) #3
- GFP, % of control: 18.3
- viability (ATP), % of control: 41.5
- call: inactive

Hspa4 (heat shock protein family A (Hsp70) member 4) #1
- GFP, % of control: 112
- viability (ATP), % of control: 64.8
- call: inactive

Hspa4 (heat shock protein family A (Hsp70) member 4) #2
- GFP, % of control: 78.5
- viability (ATP), % of control: 61.6
- call: inactive

Hspa4 (heat shock protein family A (Hsp70) member 4) #3
- GFP, % of control: 130
- viability (ATP), % of control: 110
- call: active

Gm11733 (predicted gene 11733) #1
- GFP, % of control: 81.6
- viability (ATP), % of control: 82.1
- call: inactive

Gm11733 (predicted gene 11733) #2
- GFP, % of control: 86.7
- viability (ATP), % of control: 48.1
- call: inactive

Gm11733 (predicted gene 11733) #3
- GFP, % of control: 96.8
- viability (ATP), % of control: 95
- call: inactive

Npas3 (neuronal PAS domain protein 3) #1
- GFP, % of control: 60.4
- viability (ATP), % of control: 57.7
- call: inactive

Npas3 (neuronal PAS domain protein 3) #2
- GFP, % of control: 88.7
- viability (ATP), % of control: 103
- call: inactive

Npas3 (neuronal PAS domain protein 3) #3
- GFP, % of control: 91.5
- viability (ATP), % of control: 71.2
- call: inactive

Dync1h1 (dynein cytoplasmic 1 heavy chain 1) #1
- GFP, % of control: 80.8
- viability (ATP), % of control: 77
- call: inactive

Dync1h1 (dynein cytoplasmic 1 heavy chain 1) #2
- GFP, % of control: 70.1
- viability (ATP), % of control: 71.3
- call: inactive

Slc1a1 #1
- GFP, % of control: 127
- viability (ATP), % of control: 69.5
- call: active

Slc1a1 #2
- GFP, % of control: 72
- viability (ATP), % of control: 65.3
- call: inactive

Slc1a1 #3
- GFP, % of control: 81.8
- viability (ATP), % of control: 93.2
- call: inactive

Ifna11 (interferon alpha 11) #1
- GFP, % of control: 99.3
- viability (ATP), % of control: 57.2
- call: inactive

Ifna11 (interferon alpha 11) #2
- GFP, % of control: 111
- viability (ATP), % of control: 66.2
- call: inactive

Ifna11 (interferon alpha 11) #3
- GFP, % of control: 88.5
- viability (ATP), % of control: 73.4
- call: inactive

Dnmt1 (DNA methyltransferase 1) #1
- GFP, % of control: 80.7
- viability (ATP), % of control: 75.3
- call: inactive

Dnmt1 (DNA methyltransferase 1) #2
- GFP, % of control: 83.3
- viability (ATP), % of control: 40.2
- call: inactive

Dnmt1 (DNA methyltransferase 1) #3
- GFP, % of control: 119
- viability (ATP), % of control: 102
- call: inactive
